Measured values published in patent US20210087159A1, “TETRAHYDROCANNABINOLIC- CA[…] DERIVATIVES AND USES THEREOF” (AL&AM […]., priority 2018, published 2021).

Key:
Test in all cases: CellTiter-Glo cell viability assay, cancer cell cytotoxicity/anti-proliferation panel (Chempartner)
Type in all cases: cell-based
U251, brain human glioma = settings: compounds 10 μM starting, STS 2 μM starting
[1] = test system: PC-3 ATCC prostate adenocarcinoma; settings: 72 hours, compounds 10 μM starting, STS 2 μM starting
Method: (§1) In this study, the biological activity of certain compounds of the present invention on cancer cell cytotoxicity/anti-proliferation panel was tested using the CellTiter-Glo® cell viability assay. The compounds were dissolved in DMSO to make 10 mM solution.
(§2) The cell lines tested were all selected from the Chempartner's cell collection and included: Caco-2 ATCC colon adenocarcinoma; TE-6 RIKEN esophagus, carcinoma; PC-3 ATCC prostate adenocarcinoma; T47D, breast ductal carcinoma; U251, brain human glioma; A549, lung carcinoma; OMP-2, multiple myeloma; SK-HEP-1, liver adenocarcinoma; PANC-1, pancreas ductal carcinoma; AsPC-1, pancreas, ductal carcinoma; and U-87 MG, brain glioblastoma.
(§3) For the assays described herein, absolute inhibition of cells growth (%) and absolute IC50 (Abs IC50; […]) were used to derive a value that can be used to compare results within and across runs in the same assay, as well as between different assays.
(§4) • a. Prepare complete medium: Add FBS and appropriate additives according to the information sheet provided by the vendor. Mix gently. • b. Check the cell name and complete medium and passage number marked on the flask. For adherent cell lines, refer to c to k. For suspension cell lines, refer to g to k. • c. Remove and discard culture medium using a vacuum pump. • d. Briefly rinse the cell layer with 0.25% (w/v) trypsin-0.038% (w/v) EDTA solution to remove all traces of serum that contains trypsin inhibitor. • e. Add 3.0 ml of trypsin-EDTA solution to flask and observe cells under an inverted microscope until cell layer is dispersed. • f. Add 8.0 ml of complete growth medium and aspirate cells by gently pipetting. • g. Transfer the cell suspension to a centrifuge tube and centrifuge at 800-1000 rpm for 3-5 minutes. • h. Discard the supernatant using a vacuum pump. • i. Add appropriate volume of complete medium. Suspend the cell pellet by gently pipetting. • j. Count the cell numbers with Vi-cell XR and adjust cells to appropriate density. • k. Add 100 μL of cell suspension to 96-well opaque-walled clear bottom plates according to the planned plate layout and place the plates in the CO2 incubator overnight. • l. Plate layout:
(§5) • Plate preparation of testing articles. 10 mM stock solution of each one of the compounds (provided as powder) was prepared in DMSO. […] 0.5 μL of each of the diluted compounds was transferred to the wells containing 100 μL of the culture medium. The total dilution was 200 fold. Cells were incubated with the compounds for 72 hours at 5% CO2, 37° C.
(§6) • Thaw the CellTiter-Glo buffer and equilibrate to room temperature prior to use. • Equilibrate the lyophilized CellTiter-Glo substrate to room temperature prior to use. • Transfer the appropriate volume of CellTiter-Glo buffer into the amber bottle containing CellTiter-Glo substrate to reconstitute the lyophilized enzyme/substrate mixture. This forms the CellTiter-Glo reagent. • Mix by gently vortexing, swirling or by inverting the contents to obtain a homogeneous solution. The CellTiter-Glo substrate should go into solution easily in less than one minute.

[2] = test system: AsPC-1, pancreas, ductal carcinoma; settings: compounds 10 μM starting, STS 2 μM starting
Method: as §1, §2, §3, §4, §5, §6

[3] = test system: U-87 MG, brain glioblastoma; settings: 72 hours, compounds 10 μM starting, STS 2 μM starting, 10-pt, 3-fold dilution
Method: as §1, §2, §3, §4, §5, §6

[4] = test system: TE-6 RIKEN esophagus, carcinoma; settings: 72 hours, compounds 10 μM starting, STS 2 μM starting
Method: as §1, §2, §3, §4, §5, §6

[5] = test system: PANC-1, pancreas ductal carcinoma; settings: 72 hours, compounds 10 μM starting, STS 2 μM starting, 10-pt, 3-fold dilution
Method: as §1, §2, §3, §4, §5, §6

[6] = test system: Caco-2 ATCC colon adenocarcinoma; settings: 72 hours, compounds 10 μM starting, STS 2 μM starting
Method: as §1, §2, §3, §4, §5, §6

A549, lung carcinoma = settings: 72 hours, compounds 10 μM starting, STS 2 μM starting
Method: as §1, §2, §3, §4, §5, §6

OMP-2, multiple myeloma = settings: 72 hours, compounds 10 μM starting, STS 2 μM starting
Method: as §1, §2, §3, §4, §5, §6

[7] = test system: T47D, breast ductal carcinoma; settings: 72 hours, compounds 10 μM starting, STS 2 μM starting
Method: as §1, §2, §3, §4, §5, §6

[8] = test system: SK-HEP-1, liver adenocarcinoma; settings: 72 hours, compounds 10 μM starting, STS 2 μM starting, 10-pt, 3-fold dilution
Method: as §1, §2, §3, §4, §5, §6

[9] = 72 hours, 10-pt, 3-fold dilution
[10] = Homo sapiens, read-out: IC50 (absolute IC50)

CN[C@@H]1C[C@H]2O[C@@](C)([C@@H]1OC)n1c3ccccc3c3c4c(c5c6ccccc6n2c5c31)C(=O)NC4 [STS, Staurosporine, reference compound]
Inhibition (U251, brain human glioma; [9]): 95.87%
IC50 (U251, brain human glioma; Homo sapiens, U-251, 72 hours, read-out: IC50 (absolute IC50)): 10 nM
Inhibition ([1]; 10-pt, 3-fold dilution): 78.98%
IC50 ([1]; read-out: IC50 (absolute IC50)): 20 nM
Inhibition [2, 9]: 88.40%
IC50 ([2]; Homo sapiens, ASPC1, 72 hours, read-out: IC50 (absolute IC50)): 42 nM
Inhibition [3]: 94.92%
Inhibition ([4]; 10-pt, 3-fold dilution): 100%
IC50 ([4]; read-out: IC50 (absolute IC50)): 10 nM
Inhibition [5]: 99.83%
Inhibition ([6]; 10-pt, 3-fold dilution): 91.56%
IC50 [6, 10]: 10 nM
Inhibition (A549, lung carcinoma; 10-pt, 3-fold dilution): 93.20%
IC50 (A549, lung carcinoma; [10]): 10 nM
Inhibition (OMP-2, multiple myeloma; 10-pt, 3-fold dilution): 100%
IC50 (OMP-2, multiple myeloma; read-out: IC50 (absolute IC50)): 10 nM
Inhibition ([7]; 10-pt, 3-fold dilution): 83.46%
IC50 [7, 10]: 220 nM
Inhibition [8]: 100%
